# For at least one compound, name, drawing or mass did not settle the structure.
# Protein sequences, listed by entry. Tags and fused reporters are not part of them.
# UniProt P13569, whole entry: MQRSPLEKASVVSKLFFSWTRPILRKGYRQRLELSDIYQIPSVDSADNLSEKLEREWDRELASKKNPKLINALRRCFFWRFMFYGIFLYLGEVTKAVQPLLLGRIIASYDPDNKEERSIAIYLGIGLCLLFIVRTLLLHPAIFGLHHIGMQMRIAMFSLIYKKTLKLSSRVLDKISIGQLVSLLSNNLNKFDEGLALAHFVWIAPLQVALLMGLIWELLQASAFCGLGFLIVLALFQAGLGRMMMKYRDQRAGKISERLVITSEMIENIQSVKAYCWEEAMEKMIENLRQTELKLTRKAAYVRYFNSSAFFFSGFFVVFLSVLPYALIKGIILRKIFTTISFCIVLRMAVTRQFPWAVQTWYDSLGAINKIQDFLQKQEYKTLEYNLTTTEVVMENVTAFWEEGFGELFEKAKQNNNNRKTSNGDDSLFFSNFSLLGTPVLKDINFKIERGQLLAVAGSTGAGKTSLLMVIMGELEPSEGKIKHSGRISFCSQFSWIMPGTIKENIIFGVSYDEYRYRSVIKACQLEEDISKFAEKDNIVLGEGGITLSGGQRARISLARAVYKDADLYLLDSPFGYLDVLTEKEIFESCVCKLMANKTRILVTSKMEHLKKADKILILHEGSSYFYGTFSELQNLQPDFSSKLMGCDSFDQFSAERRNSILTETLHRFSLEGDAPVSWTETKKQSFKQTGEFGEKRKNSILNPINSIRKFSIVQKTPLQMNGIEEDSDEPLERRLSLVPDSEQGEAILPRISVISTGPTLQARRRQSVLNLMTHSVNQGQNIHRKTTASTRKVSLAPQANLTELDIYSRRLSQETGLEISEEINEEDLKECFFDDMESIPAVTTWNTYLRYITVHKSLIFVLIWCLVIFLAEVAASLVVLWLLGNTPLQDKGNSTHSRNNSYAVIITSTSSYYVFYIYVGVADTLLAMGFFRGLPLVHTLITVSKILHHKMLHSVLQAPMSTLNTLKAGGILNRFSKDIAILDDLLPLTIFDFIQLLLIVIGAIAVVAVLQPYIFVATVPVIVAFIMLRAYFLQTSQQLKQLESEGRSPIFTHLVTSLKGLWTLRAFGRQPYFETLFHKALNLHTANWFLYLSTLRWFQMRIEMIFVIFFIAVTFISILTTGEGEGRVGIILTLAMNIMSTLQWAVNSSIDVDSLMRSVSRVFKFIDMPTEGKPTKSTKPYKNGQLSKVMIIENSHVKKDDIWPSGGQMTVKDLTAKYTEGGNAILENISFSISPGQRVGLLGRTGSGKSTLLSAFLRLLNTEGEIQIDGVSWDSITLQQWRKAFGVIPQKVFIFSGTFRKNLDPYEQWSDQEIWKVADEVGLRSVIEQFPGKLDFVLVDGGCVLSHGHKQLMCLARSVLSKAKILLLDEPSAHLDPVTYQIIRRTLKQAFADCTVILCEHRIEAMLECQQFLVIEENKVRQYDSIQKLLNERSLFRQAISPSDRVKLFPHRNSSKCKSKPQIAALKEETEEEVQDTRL
# Biological target: T1, wild-type CFTR (Homo sapiens, UniProt P13569)
# T1 construct: Calu-3 cells are human epithelial cells of pulmonary origin which express the wild-type CFTR gene; endogenous in cells; host or cells: Calu-3 human pulmonary epithelial cells
# Assay: Iodide efflux on Calu-3 cells: compound tested as activator
# Assay type: cell-based
# Settings: fsk 5μM, MPB-91 250μM, NB-DNJ 500μM, n=8
# Method: Calu-3 cells: Calu-3 cells are human epithelial cells of pulmonary origin which express the wild-type CFTR gene.
# The measurements of chloride ion transport in the cells were carried out using the radioactive iodide efflux technique (Becq et al., 1999; Dormer et al., 2001). The tracer (^125I) is incorporated into the intracellular medium. Then, the quantity of radiotracer leaving the cell is counted after the addition of different pharmacological agents. The iodide is used as a tracer of the chloride ion transport. […] 2 rinsings with efflux medium (NaCl: 136.6 mM, KCl: 5.4 mM, KH2PO4: 0.3 mM, NaH2PO4: 0.3 mM, NaHCO3: 4.2 mM, CaCl2: 1.3 mM, MgCl2: 0.5 mM, MgSO4: 0.4 mM, HEPES: 10 mM, D-glucose: 5.6 mM) are carried out in order to eliminate the dead cells which release the radioactivity in an anarchic manner. […] The robot (MultiPROBE, Packard) carries out the following stages: The charge medium is rinsed with efflux medium in order to eliminate the extracellular radioactivity. […] At the end of the experiment, the cells are lysed by the addition of 500 μl of NaOH (0.1 N)/0.1% SDS (30 minutes), thus, the radioactivity remaining inside the cell can be determined. The radioactivity present in the haemolysis tubes is counted in counts per minute (cpm) using a gamma counter (Cobra II, Packard). […]
structure (smiles),measurement,value
"C=C[C@@]1(C)CC(=O)[C@]2(O)[C@@]3(C)[C@@H](O)CCC(C)(C)[C@@H]3[C@H](O)[C@H](OC(C)=O)[C@@]2(C)O1 [fsk, forskolin]",activation of iodide efflux (CFTR activity / anionic transports),activate an iodide efflux

# Source: patent US8242136B2, “Use of glucosidase inhibitors for therapy of mucovisidosis” (Centre National de la Recherche Scientifique (C.N.R.S.), priority 2003, dated 2012)
